± gives the standard deviation of the averaged measurements. The reference is the same well before dosing, and untreated signal decays as well.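 Labels refer to human fibroblasts, largely primary: uterine (C12385, HUF), lung (H6013), bone (Hs27A), adrenal (HADF), skin (WS1), plus mammary HMF and breast cancer-associated Hs343T. Cancer lines are basal-like or mesenchymal-like triple-negative breast cancer. The paper counts as hits responses shifting over 3x the replicate standard deviation. The tissue of the other fibroblasts is not given here.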
System: BT20
Assay: relative JC-1 red fluorescence (viability) vs pre-drug, coculture with fibroblast (fraction); higher = more viable cancer cells
Procedure: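 JC-1 labelled TNBC cells cocultured 1:1 (1,500 cells each) with CellTrace Violet stained primary or stromal fibroblasts in 384-well plates in FluoroBrite medium, treated with one of 42 anticancer drugs at 0.1, 1, 10 or 100 uM. JC-1 red fluorescence (mitochondrial integrity in cancer cells only) was read by plate reader every 8 h for 72 h. Values are normalised to each well's pre-drug value. The stock of one drug was tenfold lower, so its dose labels may be too high.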

O=C(O)C1(C(=O)O)CCC1.[NH2-].[NH2-].[Pt+2] [Carboplatin]
relative JC-1 red fluorescence
Conditions	8 h	16 h	24 h	32 h	40 h	48 h	56 h	64 h	72 h
0.1 µM, coculture fibroblast: C12385	0.8981 ± 0.0062	0.809 ± 0.015	0.757 ± 0.035	0.692 ± 0.042	0.64 ± 0.035	0.609 ± 0.05	0.583 ± 0.056	0.565 ± 0.073	0.549 ± 0.088
0.1 µM, coculture fibroblast: H6013	0.961 ± 0.024	0.889 ± 0.049	0.866 ± 0.074	0.83 ± 0.08	0.788 ± 0.088	0.772 ± 0.089	0.762 ± 0.094	0.738 ± 0.099	0.718 ± 0.097
0.1 µM, coculture fibroblast: H6019	0.86 ± 0.029	0.792 ± 0.044	0.785 ± 0.057	0.729 ± 0.072	0.689 ± 0.083	0.671 ± 0.094	0.649 ± 0.11	0.63 ± 0.12	0.615 ± 0.13
0.1 µM, coculture fibroblast: H6076	0.892 ± 0.15	0.88 ± 0.015	0.8057 ± 0.0058	0.786 ± 0.0086	0.7561 ± 0.0051	0.7471 ± 0.0041	0.7399 ± 0.0043	0.745 ± 0.013	0.732 ± 0.015
0.1 µM, coculture fibroblast: H6231	0.886 ± 0.16	0.893 ± 0.011	0.858 ± 0.12	0.811 ± 0.15	0.777 ± 0.15	0.724 ± 0.14	0.686 ± 0.13	0.671 ± 0.12	0.643 ± 0.11
0.1 µM, coculture fibroblast: HADF	0.816 ± 0.11	0.822 ± 0.086	0.848 ± 0.08	0.816 ± 0.089	0.6979 ± 0.00085	0.716 ± 0.097	0.655 ± 0.052	0.691 ± 0.14	0.7 ± 0.21
0.1 µM, coculture fibroblast: HCFa	0.9504 ± 0.0064	0.8713 ± 0.0004	0.87 ± 0.03	0.838 ± 0.026	0.805 ± 0.035	0.784 ± 0.031	0.767 ± 0.036	0.755 ± 0.035	0.719 ± 0.046
0.1 µM, coculture fibroblast: HCPF	0.881 ± 0.015	0.916 ± 0.011	0.816 ± 0.027	0.785 ± 0.021	0.734 ± 0.033	0.695 ± 0.028	0.653 ± 0.024	0.633 ± 0.023	0.602 ± 0.016
0.1 µM, coculture fibroblast: HHSteC	0.9392 ± 0.0046	0.839 ± 0.023	0.816 ± 0.028	0.732 ± 0.035	0.662 ± 0.034	0.624 ± 0.04	0.587 ± 0.027	0.561 ± 0.027	0.537 ± 0.035
0.1 µM, coculture fibroblast: HMF	0.747 ± 0.044	0.914 ± 0.028	0.7758 ± 0.0063	0.712 ± 0.00074	0.6622 ± 0.001	0.6248 ± 0.001	0.5913 ± 0.0018	0.561 ± 0.015	0.534 ± 0.0063
0.1 µM, coculture fibroblast: HPFa	0.916 ± 0.033	0.818 ± 0.051	0.793 ± 0.041	0.701 ± 0.034	0.6663 ± 0.0018	0.612 ± 0.011	0.577 ± 0.018	0.543 ± 0.03	0.486 ± 0.036
0.1 µM, coculture fibroblast: HUF	0.9019 ± 0.0042	0.8 ± 0.029	0.724 ± 0.046	0.637 ± 0.05	0.575 ± 0.037	0.524 ± 0.03	0.498 ± 0.034	0.481 ± 0.036	0.46 ± 0.033
0.1 µM, coculture fibroblast: Hs5	0.832 ± 0.067	0.927 ± 0.033	0.849 ± 0.0019	0.7962 ± 0.006	0.744 ± 0.023	0.708 ± 0.026	0.67 ± 0.052	0.635 ± 0.074	0.594 ± 0.08
0.1 µM, coculture fibroblast: Hs27A	0.747 ± 0.05	0.919 ± 0.067	0.929 ± 0.081	0.934 ± 0.088	0.869 ± 0.069	0.841 ± 0.052	0.813 ± 0.061	0.772 ± 0.057	0.711 ± 0.065
0.1 µM, coculture fibroblast: Hs343T	0.768 ± 0.065	0.888 ± 0.025	0.761 ± 0.0091	0.696 ± 0.0076	0.6494 ± 0.0013	0.6049 ± 0.0016	0.56 ± 0.013	0.541 ± 0.02	0.508 ± 0.033
0.1 µM, coculture fibroblast: WS1	0.869 ± 0.0043	0.8143 ± 0.0048	0.73 ± 0.024	0.67 ± 0.018	0.617 ± 0.031	0.591 ± 0.034	0.563 ± 0.039	0.534 ± 0.04	0.522 ± 0.041
1 µM, coculture fibroblast: C12385	0.865 ± 0.01	0.785 ± 0.06	0.731 ± 0.062	0.658 ± 0.065	0.589 ± 0.074	0.556 ± 0.074	0.531 ± 0.081	0.511 ± 0.083	0.494 ± 0.086
1 µM, coculture fibroblast: H6013	0.934 ± 0.015	0.8795 ± 0.0087	0.8545 ± 0.0026	0.8117 ± 0.0032	0.7756 ± 0.0068	0.7668 ± 0.0066	0.767 ± 0.0091	0.751 ± 0.012	0.734 ± 0.014
1 µM, coculture fibroblast: H6019	0.852 ± 0.01	0.81 ± 0.025	0.787 ± 0.038	0.715 ± 0.028	0.668 ± 0.031	0.647 ± 0.027	0.609 ± 0.021	0.59 ± 0.027	0.567 ± 0.029
1 µM, coculture fibroblast: H6076	0.959 ± 0.049	0.91 ± 0.036	0.826 ± 0.01	0.786 ± 0.008	0.757 ± 0.013	0.722 ± 0.024	0.718 ± 0.037	0.72 ± 0.047	0.709 ± 0.042
1 µM, coculture fibroblast: H6231	0.863 ± 0.18	0.865 ± 0.064	0.819 ± 0.085	0.757 ± 0.081	0.724 ± 0.092	0.671 ± 0.093	0.638 ± 0.081	0.607 ± 0.079	0.581 ± 0.065
1 µM, coculture fibroblast: HADF	0.962 ± 0.032	0.885 ± 0.017	0.8165 ± 0.0048	0.767 ± 0.0083	0.7281 ± 0.0061	0.69 ± 0.0096	0.66 ± 0.0096	0.636 ± 0.018	0.603 ± 0.0071
1 µM, coculture fibroblast: HCFa	0.9211 ± 0.0052	0.882 ± 0.044	0.828 ± 0.079	0.764 ± 0.07	0.716 ± 0.078	0.69 ± 0.081	0.673 ± 0.098	0.648 ± 0.12	0.61 ± 0.12
1 µM, coculture fibroblast: HCPF	0.946 ± 0.072	0.891 ± 0.0032	0.811 ± 0.014	0.742 ± 0.016	0.691 ± 0.013	0.649 ± 0.017	0.612 ± 0.0094	0.595 ± 0.017	0.549 ± 0.0062
1 µM, coculture fibroblast: HHSteC	0.921 ± 0.023	0.94497 ± 0.00041	0.9759 ± 0.0046	0.912 ± 0.032	0.895 ± 0.04	0.869 ± 0.048	0.864 ± 0.063	0.851 ± 0.073	0.829 ± 0.1
1 µM, coculture fibroblast: HMF	0.945 ± 0.042	0.861 ± 0.04	0.749 ± 0.025	0.68412 ± 0.00016	0.6338 ± 0.00074	0.5899 ± 0.0016	0.555 ± 0.011	0.542 ± 0.0085	0.516 ± 0.0099
1 µM, coculture fibroblast: HPFa	0.9074 ± 0.0089	0.845 ± 0.035	0.834 ± 0.064	0.751 ± 0.077	0.726 ± 0.089	0.685 ± 0.1	0.661 ± 0.1	0.622 ± 0.11	0.565 ± 0.11
1 µM, coculture fibroblast: HUF	0.923 ± 0.044	0.846 ± 0.044	0.822 ± 0.09	0.739 ± 0.093	0.687 ± 0.1	0.645 ± 0.1	0.622 ± 0.11	0.604 ± 0.11	0.588 ± 0.12
1 µM, coculture fibroblast: Hs5	0.988 ± 0.017	0.8982 ± 0.0058	0.8231 ± 0.0052	0.77 ± 0.0045	0.738 ± 0.033	0.708 ± 0.042	0.679 ± 0.043	0.648 ± 0.042	0.617 ± 0.049
1 µM, coculture fibroblast: Hs27A	0.876 ± 0.074	0.971 ± 0.023	0.901 ± 0.019	0.878 ± 0.034	0.841 ± 0.036	0.818 ± 0.033	0.798 ± 0.042	0.771 ± 0.041	0.715 ± 0.041
1 µM, coculture fibroblast: Hs343T	0.951 ± 0.051	0.883 ± 0.023	0.757 ± 0.027	0.68 ± 0.03	0.611 ± 0.031	0.555 ± 0.048	0.509 ± 0.045	0.487 ± 0.042	0.46 ± 0.034
1 µM, coculture fibroblast: WS1	0.863 ± 0.027	0.7729 ± 0.0027	0.7336 ± 0.0042	0.6581 ± 0.0059	0.593 ± 0.012	0.564 ± 0.0082	0.539 ± 0.0092	0.5091 ± 0.0032	0.4917 ± 0.0044
